Measured values published in paper PMC11300639.
No constants are given. Whether binding was seen depends on the method and setting. In cells and extracts the contact can be indirect. Some binding calls cover weakened binding; strength is not graded here. For some assays here: Where a sequence is shown, tags or fusion partners need not be part of it. Blank lines part the entries; values can stand above or below the molecule they belong to.

Legend:
[1] = biological target: T1, TSC1 (human (endogenous in 786-O and A498)) (UniProt Q92574); experiment: co-IP; endogenous proteins in 786-O and A498 cells; immunoprecipitation with TSC1 or RNF26 antibodies (CDK4 or RNF26 antibodies for CDK4 with RNF26); for TSC1 with RNF26 in 786-O also after phosphatase or palbociclib treatment, CDK4 overexpression or CDK4 siRNA
T1 sequence: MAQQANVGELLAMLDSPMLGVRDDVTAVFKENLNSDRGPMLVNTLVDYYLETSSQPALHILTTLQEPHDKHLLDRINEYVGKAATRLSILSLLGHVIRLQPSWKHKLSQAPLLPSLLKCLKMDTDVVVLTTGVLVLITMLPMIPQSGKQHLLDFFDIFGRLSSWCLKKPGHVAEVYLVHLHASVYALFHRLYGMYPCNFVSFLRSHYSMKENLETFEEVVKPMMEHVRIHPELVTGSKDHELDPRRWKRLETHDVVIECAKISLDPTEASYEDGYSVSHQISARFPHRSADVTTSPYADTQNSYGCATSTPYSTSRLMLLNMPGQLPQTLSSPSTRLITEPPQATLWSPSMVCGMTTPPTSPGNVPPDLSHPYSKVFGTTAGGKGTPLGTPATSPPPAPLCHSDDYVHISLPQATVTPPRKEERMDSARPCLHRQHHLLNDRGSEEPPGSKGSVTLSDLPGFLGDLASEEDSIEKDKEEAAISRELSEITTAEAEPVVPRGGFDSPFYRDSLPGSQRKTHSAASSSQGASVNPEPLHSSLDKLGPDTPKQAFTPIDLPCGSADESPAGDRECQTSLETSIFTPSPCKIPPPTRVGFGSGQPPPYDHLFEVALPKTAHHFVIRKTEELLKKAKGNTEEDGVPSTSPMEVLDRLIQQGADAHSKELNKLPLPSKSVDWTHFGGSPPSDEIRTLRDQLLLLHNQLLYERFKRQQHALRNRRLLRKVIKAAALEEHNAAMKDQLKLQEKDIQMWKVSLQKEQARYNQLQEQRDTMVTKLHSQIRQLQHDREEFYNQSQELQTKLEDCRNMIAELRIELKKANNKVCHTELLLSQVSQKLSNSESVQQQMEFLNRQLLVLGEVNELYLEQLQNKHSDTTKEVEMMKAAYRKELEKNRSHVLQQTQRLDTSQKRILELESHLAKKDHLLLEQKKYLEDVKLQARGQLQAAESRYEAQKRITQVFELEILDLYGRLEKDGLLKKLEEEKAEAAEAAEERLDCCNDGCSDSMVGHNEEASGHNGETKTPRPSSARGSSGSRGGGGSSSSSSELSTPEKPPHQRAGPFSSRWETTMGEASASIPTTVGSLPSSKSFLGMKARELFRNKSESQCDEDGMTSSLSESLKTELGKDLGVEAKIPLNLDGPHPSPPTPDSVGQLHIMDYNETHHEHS

[2] = biological target: T1, TSC1 (human (endogenous in 786-O and A498)); experiment: proximity ligation; Proximity Ligation Assay (PLA) in 786-O cells with the indicated antibodies
[3] = biological target: T2, GST-RNF26-N (1-379 aa) (human) (UniProt Q9BY78); experiment: pull-down; GST pull-down with recombinant proteins of RNF26; source of TSC1 not told
T2 sequence: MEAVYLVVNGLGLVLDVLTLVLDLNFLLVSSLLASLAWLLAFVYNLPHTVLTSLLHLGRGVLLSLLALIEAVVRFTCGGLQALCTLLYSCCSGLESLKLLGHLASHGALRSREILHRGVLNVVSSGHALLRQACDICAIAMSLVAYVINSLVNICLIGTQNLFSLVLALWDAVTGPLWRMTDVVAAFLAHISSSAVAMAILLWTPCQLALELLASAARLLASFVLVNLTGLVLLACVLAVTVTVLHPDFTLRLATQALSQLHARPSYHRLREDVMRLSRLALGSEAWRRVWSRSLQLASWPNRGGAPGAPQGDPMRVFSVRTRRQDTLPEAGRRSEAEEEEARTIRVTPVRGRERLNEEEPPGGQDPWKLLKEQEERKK

[4] = biological target: RNF26 T348A (threonine to alanine) mutant (human) (UniProt Q9BY78); experiment: co-IP; 786-O cells treated with the indicated plasmids (wild-type RNF26 or RNF26 T348A) or chemicals (palbociclib) for 48 h; immunoprecipitation and western blotting
[5] = biological target: wild-type RNF26 (transfected) (human) (UniProt Q9BY78); experiment: as above

- binding [1]: binds
- binding [2]: binds
Molecule: RING finger protein 26 (RNF26) (from UniProt Q9BY78 1-433)

- binding [3]: binds
B1: TSC1 (in the GST pull-down assays) (protein, UniProt Q92574 1-1164)
chain: MAQQANVGELLAMLDSPMLGVRDDVTAVFKENLNSDRGPMLVNTLVDYYLETSSQPALHILTTLQEPHDKHLLDRINEYVGKAATRLSILSLLGHVIRLQPSWKHKLSQAPLLPSLLKCLKMDTDVVVLTTGVLVLITMLPMIPQSGKQHLLDFFDIFGRLSSWCLKKPGHVAEVYLVHLHASVYALFHRLYGMYPCNFVSFLRSHYSMKENLETFEEVVKPMMEHVRIHPELVTGSKDHELDPRRWKRLETHDVVIECAKISLDPTEASYEDGYSVSHQISARFPHRSADVTTSPYADTQNSYGCATSTPYSTSRLMLLNMPGQLPQTLSSPSTRLITEPPQATLWSPSMVCGMTTPPTSPGNVPPDLSHPYSKVFGTTAGGKGTPLGTPATSPPPAPLCHSDDYVHISLPQATVTPPRKEERMDSARPCLHRQHHLLNDRGSEEPPGSKGSVTLSDLPGFLGDLASEEDSIEKDKEEAAISRELSEITTAEAEPVVPRGGFDSPFYRDSLPGSQRKTHSAASSSQGASVNPEPLHSSLDKLGPDTPKQAFTPIDLPCGSADESPAGDRECQTSLETSIFTPSPCKIPPPTRVGFGSGQPPPYDHLFEVALPKTAHHFVIRKTEELLKKAKGNTEEDGVPSTSPMEVLDRLIQQGADAHSKELNKLPLPSKSVDWTHFGGSPPSDEIRTLRDQLLLLHNQLLYERFKRQQHALRNRRLLRKVIKAAALEEHNAAMKDQLKLQEKDIQMWKVSLQKEQARYNQLQEQRDTMVTKLHSQIRQLQHDREEFYNQSQELQTKLEDCRNMIAELRIELKKANNKVCHTELLLSQVSQKLSNSESVQQQMEFLNRQLLVLGEVNELYLEQLQNKHSDTTKEVEMMKAAYRKELEKNRSHVLQQTQRLDTSQKRILELESHLAKKDHLLLEQKKYLEDVKLQARGQLQAAESRYEAQKRITQVFELEILDLYGRLEKDGLLKKLEEEKAEAAEAAEERLDCCNDGCSDSMVGHNEEASGHNGETKTPRPSSARGSSGSRGGGGSSSSSSELSTPEKPPHQRAGPFSSRWETTMGEASASIPTTVGSLPSSKSFLGMKARELFRNKSESQCDEDGMTSSLSESLKTELGKDLGVEAKIPLNLDGPHPSPPTPDSVGQLHIMDYNETHHEHS

- binding [4]: binds
- binding [5]: binds
B2: TSC1 (protein, UniProt Q92574 1-1164)
chain: MAQQANVGELLAMLDSPMLGVRDDVTAVFKENLNSDRGPMLVNTLVDYYLETSSQPALHILTTLQEPHDKHLLDRINEYVGKAATRLSILSLLGHVIRLQPSWKHKLSQAPLLPSLLKCLKMDTDVVVLTTGVLVLITMLPMIPQSGKQHLLDFFDIFGRLSSWCLKKPGHVAEVYLVHLHASVYALFHRLYGMYPCNFVSFLRSHYSMKENLETFEEVVKPMMEHVRIHPELVTGSKDHELDPRRWKRLETHDVVIECAKISLDPTEASYEDGYSVSHQISARFPHRSADVTTSPYADTQNSYGCATSTPYSTSRLMLLNMPGQLPQTLSSPSTRLITEPPQATLWSPSMVCGMTTPPTSPGNVPPDLSHPYSKVFGTTAGGKGTPLGTPATSPPPAPLCHSDDYVHISLPQATVTPPRKEERMDSARPCLHRQHHLLNDRGSEEPPGSKGSVTLSDLPGFLGDLASEEDSIEKDKEEAAISRELSEITTAEAEPVVPRGGFDSPFYRDSLPGSQRKTHSAASSSQGASVNPEPLHSSLDKLGPDTPKQAFTPIDLPCGSADESPAGDRECQTSLETSIFTPSPCKIPPPTRVGFGSGQPPPYDHLFEVALPKTAHHFVIRKTEELLKKAKGNTEEDGVPSTSPMEVLDRLIQQGADAHSKELNKLPLPSKSVDWTHFGGSPPSDEIRTLRDQLLLLHNQLLYERFKRQQHALRNRRLLRKVIKAAALEEHNAAMKDQLKLQEKDIQMWKVSLQKEQARYNQLQEQRDTMVTKLHSQIRQLQHDREEFYNQSQELQTKLEDCRNMIAELRIELKKANNKVCHTELLLSQVSQKLSNSESVQQQMEFLNRQLLVLGEVNELYLEQLQNKHSDTTKEVEMMKAAYRKELEKNRSHVLQQTQRLDTSQKRILELESHLAKKDHLLLEQKKYLEDVKLQARGQLQAAESRYEAQKRITQVFELEILDLYGRLEKDGLLKKLEEEKAEAAEAAEERLDCCNDGCSDSMVGHNEEASGHNGETKTPRPSSARGSSGSRGGGGSSSSSSELSTPEKPPHQRAGPFSSRWETTMGEASASIPTTVGSLPSSKSFLGMKARELFRNKSESQCDEDGMTSSLSESLKTELGKDLGVEAKIPLNLDGPHPSPPTPDSVGQLHIMDYNETHHEHS
